In article PMC5519194:

Key:
[1] = target: T1, 6myc-HAS2 (hyaluronan synthase 2, wild type) (UniProt Q92819); test: co-IP; membrane fractions of HEK293T cells co-expressing 6myc-HAS2 and Flag-DUB; TBS/Ca2+ buffer with 0.1% SDS, 0.5% NP-40; immunoprecipitation with anti-myc antibody and protein G-Sepharose overnight at 4 °C; blot with anti-Flag M2
T1 sequence: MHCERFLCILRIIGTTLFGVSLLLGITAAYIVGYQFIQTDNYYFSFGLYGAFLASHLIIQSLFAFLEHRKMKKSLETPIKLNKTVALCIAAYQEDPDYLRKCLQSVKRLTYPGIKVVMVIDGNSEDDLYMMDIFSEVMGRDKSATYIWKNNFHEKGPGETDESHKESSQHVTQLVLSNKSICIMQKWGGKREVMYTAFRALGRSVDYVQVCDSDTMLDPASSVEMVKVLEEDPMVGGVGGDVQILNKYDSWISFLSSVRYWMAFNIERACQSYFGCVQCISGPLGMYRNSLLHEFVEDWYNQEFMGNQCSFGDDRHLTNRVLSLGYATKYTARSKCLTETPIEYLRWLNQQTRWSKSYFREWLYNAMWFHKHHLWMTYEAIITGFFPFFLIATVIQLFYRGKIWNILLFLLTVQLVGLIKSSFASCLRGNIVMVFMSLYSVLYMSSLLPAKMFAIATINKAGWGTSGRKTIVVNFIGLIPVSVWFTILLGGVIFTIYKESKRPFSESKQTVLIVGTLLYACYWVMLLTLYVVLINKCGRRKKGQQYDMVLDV

[2] = target: T2, HAS2, endogenous (human (endogenous in MDA-MB-231-BM)) (UniProt Q92819); test: proximity ligation; in situ PLA on acetone-fixed MDA-MB-231-BM cells with antibodies against HAS2 and USP17 or USP4; endogenous proteins; also after release from double thymidine block and after HAS2 shRNA
T2 sequence: T1 sequence

[3] = target: Flag-HA-USP17 (wild type; truncated protein of 413 amino-acid residues) (human); test: co-IP; membrane fractions of HEK293T cells co-expressing 6myc-HAS2 and Flag-DUB; TBS/Ca2+ buffer with 0.1% SDS, 0.5% NP-40; immunoprecipitation with anti-Flag-M2 magnetic beads overnight at 4 °C; blot with anti-myc

- binding [1]: binds
Molecule: Flag-HA-USP17 (wild type; truncated protein of 413 amino-acid residues) (human) (enzyme)

- binding [2]: binds
Molecule: USP17, endogenous (human (endogenous in MDA-MB-231-BM)) (enzyme)

- binding [3]: binds
B1: 6myc-HAS2 (hyaluronan synthase 2, wild type) (enzyme, UniProt Q92819 1-552)
chain: T1 sequence

These are yes or no findings as the source states them, for the method shown. Binding seen in cells or lysates may run through a third protein. Binding calls can cover weak binding; strength is not graded here. For part of these data: Sequences can lack the tags named with a protein. Each block holds one molecule with its values, some of them ahead of it.
